Measurements from PubChem BioAssay AID1487 (National Center for Advancing Translational Sciences (NCATS), 2009).
This is one part of the list. Shown are side measurements of this screen, not its main read-out; they come without a call. Compounds called inactive in the main read-out are mostly missing here. Potencies come from curve fits of mixed quality, noted in brackets.

Experiment: qHTS Assay for Modulators of Lamin A Splicing
Details: HeLa LMNA splicing GFP/RFP minigene ratio, 48 h
Outline: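 S3 HeLa cells stably expressing lamin A-EGFP splicing minigene plus DsRed2, 600 cells/well, 48 h compound exposure at 37C. Laser-scanning cytometry; analysed as GFP (500-530 nm)/RFP (575-640 nm) total intensity ratio; 0.5% DMSO vehicle.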

[1] = measured here: GFP splicing reporter channel
[2] = measured here: RFP viability control channel

Structure (SMILES) | AC50 [1] | AC50 [2]
CC(N=Cc1c(O)[nH]c(=O)[nH]c1=O)c1ccccc1 (stereo unspecified) | 6.31 µM [rising, single point] | 
CCCCn1c(O)c(C(CC)=Nc2ccc(OC)cc2OC)c(=O)[nH]c1=O |  | 35.5 µM [falling, single point]
O=C(O)C12C3CCCC1C32c1ccccc1 (stereo unspecified) |  | 0.0398 µM [falling, full curve, poor fit]
COC(C(=O)C(O)C(C)O)C1Cc2cc3cc(OC4CC(OC5CC(O)C(OC)C(C)O5)C(OC(C)=O)C(C)O4)c(C)c(O)c3c(O)c2C(=O)C1OC1CC(OC2CC(OC3CC(C)(O)C(OC(C)=O)C(C)O3)C(O)C(C)O2)C(O)C(C)O1 (stereo unspecified) | 0.0631 µM [falling, full curve] | 0.224 µM [falling, full curve]
O=P1(NCCCl)OCCCN1CCCl (stereo unspecified) | 7.94 µM [falling, partial curve, poor fit] | 0.0562 µM [falling, full curve, poor fit]
O=C1NC(=O)C(CCc2ccccn2)(Cc2cccc(Cl)c2Cl)C(=O)N1c1ccc(Br)cc1 (stereo unspecified) |  | 20 µM [rising, single point]
O=C1NC(=O)C2(Cc3ccccc3N3CCCC32)C(=O)N1c1ccc(Cl)cc1 (stereo unspecified) | 35.5 µM [falling, partial curve, poor fit] | 
Cc1cccc(-n2c(O)c(C)c(=O)[nH]c2=S)c1 | 1.58 µM [falling, full curve] | 1.41 µM [falling, full curve, poor fit]
CC(=O)OC(CC(=O)O)C[N+](C)(C)C (stereo unspecified) | 14.1 µM [rising, partial curve, poor fit] | 15.8 µM [rising, single point]
Cc1ccc(Cn2cccc(C(=O)Nc3nc4ccc(C)cc4s3)c2=O)cc1 |  | 3.55 µM [falling, partial curve, poor fit]
CCCCCCCCCCCCCCCC(=O)OC(C)C | 0.0398 µM [falling, full curve, poor fit] | 25.1 µM [falling, single point]
C/C(=N\N1CCCCCC1)c1c(O)n(-c2ccccc2)c(=O)[nH]c1=O |  | 17.8 µM [rising, single point]
CCOc1ccc2c(c1)c(C(C)=O)c(C)n2Cc1ccco1 |  | 0.00398 µM [falling, full curve, poor fit]
O=c1[nH]c(=O)n(Cl)c(=O)n1Cl | 35.5 µM [falling, single point] | 
C=C(C)[C@H]1CC[C@]2(C(=O)O)CC[C@]3(C)[C@@H](CC[C@H]4[C@@]5(C)CC[C@@H](O)C(C)(C)[C@@H]5CC[C@@]43C)[C@H]12 | 4.47 µM [falling, partial curve] | 5.01 µM [falling, partial curve]

Sorted by heavy-atom count (ascending): part of the list above
Structure (SMILES) | AC50 [1] | AC50 [2]
C/C(=N\N1CCCCCC1)c1c(O)n(-c2ccccc2)c(=O)[nH]c1=O |  | 17.8 µM [rising, single point]
O=C1NC(=O)C(CCc2ccccn2)(Cc2cccc(Cl)c2Cl)C(=O)N1c1ccc(Br)cc1 (stereo unspecified) |  | 20 µM [rising, single point]
COC(C(=O)C(O)C(C)O)C1Cc2cc3cc(OC4CC(OC5CC(O)C(OC)C(C)O5)C(OC(C)=O)C(C)O4)c(C)c(O)c3c(O)c2C(=O)C1OC1CC(OC2CC(OC3CC(C)(O)C(OC(C)=O)C(C)O3)C(O)C(C)O2)C(O)C(C)O1 (stereo unspecified) | 0.0631 µM [falling, full curve] | 0.224 µM [falling, full curve]
